One experiment concerns the target T1, MYC::HPO-8 (C. elegans) (UniProt O17040).
T1 sequence: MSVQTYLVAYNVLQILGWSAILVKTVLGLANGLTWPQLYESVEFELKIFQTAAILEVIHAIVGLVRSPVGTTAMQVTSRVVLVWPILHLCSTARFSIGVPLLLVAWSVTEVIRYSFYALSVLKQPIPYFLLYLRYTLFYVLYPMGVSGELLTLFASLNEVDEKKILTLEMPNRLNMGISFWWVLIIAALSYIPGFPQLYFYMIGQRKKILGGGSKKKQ
As to the kind of experiment: co-IP; MYC IP from worm lysate (800 μg) with Myc-Trap magnetic agarose beads, 75 min, 4 °C; 10 mM Tris pH 7.5, 150 mM NaCl, 5 mM EDTA, 0.5% NP40; Western blot. For orientation: In western blotting, separated proteins are transferred to a membrane and probed.

Amino acid sequences for entries named in this document (tags omitted). A change or cut given only in a name is not applied to a line headed by its entry.
UniProt Q9N536: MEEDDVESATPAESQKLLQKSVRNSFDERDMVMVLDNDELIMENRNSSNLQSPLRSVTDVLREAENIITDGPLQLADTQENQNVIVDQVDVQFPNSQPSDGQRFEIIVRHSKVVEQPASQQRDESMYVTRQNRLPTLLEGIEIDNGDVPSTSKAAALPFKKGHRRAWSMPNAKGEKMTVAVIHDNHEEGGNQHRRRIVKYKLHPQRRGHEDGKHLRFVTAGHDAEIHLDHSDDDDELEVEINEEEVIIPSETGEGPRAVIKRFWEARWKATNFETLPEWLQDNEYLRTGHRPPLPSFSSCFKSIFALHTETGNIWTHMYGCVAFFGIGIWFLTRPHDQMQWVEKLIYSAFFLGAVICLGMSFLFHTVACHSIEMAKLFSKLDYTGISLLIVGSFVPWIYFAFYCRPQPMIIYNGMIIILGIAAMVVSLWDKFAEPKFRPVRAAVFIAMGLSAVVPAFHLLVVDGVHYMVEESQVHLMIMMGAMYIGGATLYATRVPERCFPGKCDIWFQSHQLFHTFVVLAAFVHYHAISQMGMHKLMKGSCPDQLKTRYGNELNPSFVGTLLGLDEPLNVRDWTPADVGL

In the next experiment the target is ACS-4::FLAG (C. elegans). As to the kind of experiment: co-IP; FLAG IP from worm lysate (1000 μg) with anti-FLAG M2 magnetic beads, overnight, 4 °C; 10 mM Tris pH 7.5, 150 mM NaCl, 5 mM EDTA, 0.5% NP40; Western blot.
A further experiment concerns the target HA::PAQR-2 (C. elegans) (UniProt Q9N536). As to the kind of experiment: co-IP; HA IP from worm lysate (1000 μg) with HA-Tag (C29F4) rabbit mAb Sepharose bead conjugate, overnight, 4 °C; 25 mM Tris pH 7.5, 150 mM NaCl, 0.1% NP40; Western blot.

Results are given in words; binding and its absence hold for the method and conditions named. Binding seen in cells or lysates may run through a third protein. Binding can be weak; no strength is given. Sequences can lack the tags named with a protein.

Consider “HA::PAQR-2 (from UniProt Q9N536) (receptor)”, for which the binding entry with MYC::HPO-8 (C. elegans) was “binds”.

B1: MYC::HPO-8 (enzyme, UniProt O17040 1-218)
chain: T1 sequence
As for B1, the binding result with ACS-4::FLAG (C. elegans) and with HA::PAQR-2 (C. elegans) was “binds” throughout.
